Measured values as given in article doi:10.1101/2025.07.28.666932.
These are yes or no findings as the source states them, for the method shown. Some results given as binding are weak or reduced against the parent protein; the word gives no strength.

Columns and labels:
[1] = molecular target: fluorinase FlA1 from Streptomyces sp. strain MA37 (5'-fluoro-5'-deoxyadenosine synthase), wild type (Streptomyces sp. strain MA37) (UniProt W0W999); test: mass photometry
[2] = molecular target: fluorinase FlA1 variant C44T (Streptomyces sp. strain MA37) (UniProt W0W999); test: mass photometry

fluorinase FlA1 from Streptomyces sp. strain MA37 (5'-fluoro-5'-deoxyadenosine synthase), wild type (from UniProt W0W999 1-299) (enzyme)
binding [1]: binds

fluorinase FlA1 variant C44T (from UniProt W0W999 1-299) (enzyme)
binding [2]: binds
